This note sets out measurements from patent US20040219097A1, “Composition useful for the diagnosis, imaging and treatment of tumors” (priority 2003, published 2004).

In this data set the test system is JJ5 Breast Cancer cells. As to the kind of experiment: Binding of EGF-^111In-labeled transferrin compound to breast cancer cells (radioligand binding, kinetics, retention). The note with it: over a 24 hour period at 37° C. Set-up: species or system human. The method, then:
For the normal breast cell line HBL-100, 8000 EGFR/cell has been reported. The expression of EGFR in breast cancer cell lines has a reported range of 800 EGFR/cell for MCF-7 cells to 10^6 EGFR/cell for MDA-MB-468 cells. […] Utilizing the Auger electron emitter ^111In was used in the initial experiments to illustrate the utility of the invention using EGF-^111In-labeled transferrin compounds. The EGF-^111In-labeled transferrin (0.25-80 ng) was incubated with 1.5×10^6 cells/dish JJ5 Breast Cancer (prepared from BCBM JJ5) cells in 1 mL of 0.1% human serum albumin in 35 mm multiwell culture dishes at 37° C. for 30 minutes. The cells were transferred to a centrifuge tube and centrifuged. The cell pellet was separated from the supernatant and counted in a g-scintillation counter to determine bound (B) and free (F) radioactivity. Non-specific binding was determined by conducting the assay in 100 nM hEGF. […] Internalized fraction was measured by determining the proportion of radioactivity which could not be displaced from the cell surface by 100 nM hEGF. Cell-associated binding (surface-binding and intracellular accumulation) was expressed as a percentage of medium radioactivity bound per mg of cell study protein.

In the case of “EGF-^111In-labeled transferrin compound: human EGF linked to ^111In-labeled human transferrin”, the “^111In radioactivity lost from the cells in vitro” value is below 8%.
